Reference: patent publication US8017315
These are yes or no findings as the source states them, for the method shown. Some results given as binding are weak or reduced against the parent protein; the word gives no strength.

Chains of the proteins cited; added tags and fusions are not shown. Lines headed by an entry give the natural chain unless they say otherwise; changes in a name come on top. Residues count along the entry.
UniProt P08238: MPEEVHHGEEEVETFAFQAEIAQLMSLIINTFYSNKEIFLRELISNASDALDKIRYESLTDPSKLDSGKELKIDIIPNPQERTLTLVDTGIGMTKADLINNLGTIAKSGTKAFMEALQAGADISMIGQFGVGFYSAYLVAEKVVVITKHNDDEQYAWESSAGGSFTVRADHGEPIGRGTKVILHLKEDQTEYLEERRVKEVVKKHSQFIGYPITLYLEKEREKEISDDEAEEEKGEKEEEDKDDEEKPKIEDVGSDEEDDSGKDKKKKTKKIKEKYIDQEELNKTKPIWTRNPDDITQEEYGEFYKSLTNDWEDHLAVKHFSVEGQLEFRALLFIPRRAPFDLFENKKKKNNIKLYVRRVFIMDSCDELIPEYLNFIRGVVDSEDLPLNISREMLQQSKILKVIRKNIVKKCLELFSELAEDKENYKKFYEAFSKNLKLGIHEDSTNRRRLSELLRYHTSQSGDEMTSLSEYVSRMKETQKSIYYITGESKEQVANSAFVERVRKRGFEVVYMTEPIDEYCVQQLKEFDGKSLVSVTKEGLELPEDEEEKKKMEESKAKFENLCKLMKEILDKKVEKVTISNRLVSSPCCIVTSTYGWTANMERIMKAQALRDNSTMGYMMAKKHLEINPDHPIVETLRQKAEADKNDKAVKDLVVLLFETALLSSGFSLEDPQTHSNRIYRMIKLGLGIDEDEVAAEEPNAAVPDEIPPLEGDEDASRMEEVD
UniProt P15941, residues 24-1255: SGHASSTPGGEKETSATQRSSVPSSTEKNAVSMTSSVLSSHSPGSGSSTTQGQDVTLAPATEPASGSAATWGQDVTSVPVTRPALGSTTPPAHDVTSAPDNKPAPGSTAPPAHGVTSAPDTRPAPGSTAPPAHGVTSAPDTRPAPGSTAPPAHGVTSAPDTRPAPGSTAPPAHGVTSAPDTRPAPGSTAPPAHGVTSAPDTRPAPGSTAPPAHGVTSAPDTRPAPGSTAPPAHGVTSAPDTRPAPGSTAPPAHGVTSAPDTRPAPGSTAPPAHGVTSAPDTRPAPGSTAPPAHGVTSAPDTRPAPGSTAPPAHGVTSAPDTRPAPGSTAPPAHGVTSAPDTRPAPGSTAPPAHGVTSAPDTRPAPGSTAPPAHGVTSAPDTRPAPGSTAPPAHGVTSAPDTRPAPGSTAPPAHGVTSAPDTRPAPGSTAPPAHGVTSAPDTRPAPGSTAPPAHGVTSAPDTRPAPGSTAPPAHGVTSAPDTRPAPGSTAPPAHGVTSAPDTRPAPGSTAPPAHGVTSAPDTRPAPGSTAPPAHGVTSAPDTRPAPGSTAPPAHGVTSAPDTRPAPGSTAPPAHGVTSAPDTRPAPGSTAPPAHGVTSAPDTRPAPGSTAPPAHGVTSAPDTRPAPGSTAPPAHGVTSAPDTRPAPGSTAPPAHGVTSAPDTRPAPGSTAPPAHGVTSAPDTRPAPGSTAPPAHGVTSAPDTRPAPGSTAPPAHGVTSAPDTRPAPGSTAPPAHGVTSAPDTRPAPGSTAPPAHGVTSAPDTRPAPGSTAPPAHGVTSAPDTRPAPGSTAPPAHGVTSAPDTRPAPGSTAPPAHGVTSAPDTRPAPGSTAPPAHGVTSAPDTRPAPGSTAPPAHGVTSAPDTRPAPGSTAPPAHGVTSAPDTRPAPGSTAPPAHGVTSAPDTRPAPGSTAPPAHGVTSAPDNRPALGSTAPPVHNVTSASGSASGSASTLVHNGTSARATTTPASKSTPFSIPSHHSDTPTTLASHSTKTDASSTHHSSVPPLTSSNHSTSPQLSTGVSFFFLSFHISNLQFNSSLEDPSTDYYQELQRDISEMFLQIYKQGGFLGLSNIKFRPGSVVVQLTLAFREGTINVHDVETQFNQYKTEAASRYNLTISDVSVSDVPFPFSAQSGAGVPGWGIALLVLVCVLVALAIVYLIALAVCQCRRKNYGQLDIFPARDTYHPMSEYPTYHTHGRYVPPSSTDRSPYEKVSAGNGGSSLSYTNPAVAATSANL

What was measured:
[1] = biological target: HSP90 (endogenous, in lysates of human cells) (human) (UniProt P08238); experiment: anti-Flag affinity purification from HeLa cells, glycerol gradient, SDS-PAGE, MALDI-TOF-MS
[2] = biological target: HSP90 (endogenous, in lysates of human cells) (human) (UniProt P08238); experiment: anti-Flag immunoprecipitation from HCT116/Flag-MUC1-CD lysates, anti-HSP90 immunoblot
[3] = biological target: HSP90 (endogenous, in lysates of human cells) (human) (UniProt P08238); experiment: anti-Flag immunoprecipitation from HCT116/Flag-MUC1-CD cells with or without HRG, immunoblot
[4] = biological target: HSP90 (endogenous, in lysates of human cells) (human) (UniProt P08238); experiment: anti-MUC1-N immunoprecipitation from MCF-7 lysates, anti-HSP90 immunoblot
[5] = biological target: HSP90 (endogenous, in lysates of human cells) (human) (UniProt P08238); experiment: anti-MUC1-N immunoprecipitation from whole cell lysates and purified cell membranes of HCT116/MUC1 cells, anti-HSP90 immunoblot
[6] = biological target: HSP90 (endogenous, in lysates of human cells) (human) (UniProt P08238); experiment: anti-MUC1-N immunoprecipitation from ZR-75-1 lysates, anti-HSP90 immunoblot
[7] = biological target: HSP90 (endogenous, in lysates of human cells) (human) (UniProt P08238); experiment: anti-MUC1-N immunoprecipitation from HCT116/MUC1 cells with or without HRG, PP2 or GA, anti-HSP90 immunoblot
[8] = biological target: HSP90 (endogenous, in lysates of human cells) (human) (UniProt P08238); experiment: anti-MUC1-N immunoprecipitation from transfected 293 cells with or without c-Src, immunoblot
[9] = biological target: HSP90 (endogenous, in lysates of human cells) (human) (UniProt P08238); experiment: anti-HSP90 immunoprecipitation from control and HRG-treated HCT116/MUC1 cells, immunoblot for MUC1
[10] = biological target: HSP90 (endogenous, in lysates of human cells) (human) (UniProt P08238); experiment: anti-MUC1-N immunoprecipitation from HCT116/MUC1 lysates, anti-HSP90 immunoblot
[11] = biological target: HSP90 (endogenous, in lysates of human cells) (human) (UniProt P08238); experiment: anti-HSP90 immunoprecipitation from MCF-7 lysates, anti-MUC1-C immunoblot
[12] = biological target: HSP90 (endogenous, in lysates of human cells) (human) (UniProt P08238); experiment: anti-HSP90 immunoprecipitation from cytosolic fractions of HCT116/MUC1 cells, anti-MUC1-C immunoblot
[13] = biological target: HSP90 (endogenous, in lysates of human cells) (human) (UniProt P08238); experiment: anti-HSP90 immunoprecipitation from ZR-75-1 lysates, anti-MUC1-C immunoblot

Measured: binding

Flag-HA-tagged MUC1-C (pOZ-N-MUC1) (from UniProt P15941 1097-1255)
binds: [1]

Flag-MUC1-CD (from UniProt P15941 1184-1255)
binds: [2] | [3]

MUC1 (human, full length, expressed in cells) (from UniProt P15941 24-1255)
binds: [4] | [5] | [6] | [7] | [8] | [9] | [10]

MUC1-C (C-terminal subunit of MUC1, in cells) (from UniProt P15941 1098-1255)
binds: [11] | [12] | [13]
